No constants are given. Whether binding was seen depends on the method and setting. Some results given as binding are weak or reduced against the parent protein; the word gives no strength.
Experiments:
[1] = molecular target: human 4-1BB, full-length, on cells (human) (UniProt Q07011); assay: flow cytometry on human 4-1BB CHO-K1 cells
[2] = molecular target: human 4-1BB, full-length, on cells (human) (UniProt Q07011); assay: flow cytometry on human 4-1BB-expressing CHO-K1 cells, PE goat anti-human IgG Fc, MFI
[3] = molecular target: human 4-1BB, full-length, on cells (human) (UniProt Q07011); assay: flow cytometry on PMA/ionomycin-activated human T cells
[4] = molecular target: human 4-1BB protein (coated on ELISA plates) (human) (UniProt Q07011); assay: ELISA, cross-family test
[5] = molecular target: human 4-1BB, full-length, on cells (human) (UniProt Q07011); assay: flow cytometry on activated human T cells (PMA and ionomycin, 48 h), PE goat anti-human IgG Fc, MFI
[6] = molecular target: human 4-1BB protein (coated on ELISA plates) (human) (UniProt Q07011); assay: competition ELISA on plate-coated human 4-1BB; competitor: biotinylated BMK4, detected with streptavidin-HRP, OD450-OD540
[7] = molecular target: human 4-1BB protein (coated on ELISA plates) (human) (UniProt Q07011); assay: ELISA on plate-coated antigen, HRP goat anti-human IgG Fc, OD450-OD540; antibody concentration not given
[8] = molecular target: human 4-1BB, full-length, on cells (human) (UniProt Q07011); assay: ligand competition by flow cytometry on human 4-1BB-expressing CHO-K1 cells; blocked ligand: human 4-1BBL-His at constant concentration, detected with anti-His-biotin and PE-streptavidin, MFI
[9] = molecular target: mouse 4-1BB, full-length, on cells (mouse) (UniProt P20334); assay: flow cytometry on murine 4-1BB CHO-K1 cells
[10] = molecular target: mouse 4-1BB, full-length, on cells (mouse) (UniProt P20334); assay: flow cytometry on murine 4-1BB-expressing CHO-K1 cells, PE goat anti-human IgG Fc, MFI

Chains of the proteins cited; added tags and fusions are not shown. Lines headed by an entry give the natural chain unless they say otherwise; changes in a name come on top. Residues count along the entry.
UniProt Q07011: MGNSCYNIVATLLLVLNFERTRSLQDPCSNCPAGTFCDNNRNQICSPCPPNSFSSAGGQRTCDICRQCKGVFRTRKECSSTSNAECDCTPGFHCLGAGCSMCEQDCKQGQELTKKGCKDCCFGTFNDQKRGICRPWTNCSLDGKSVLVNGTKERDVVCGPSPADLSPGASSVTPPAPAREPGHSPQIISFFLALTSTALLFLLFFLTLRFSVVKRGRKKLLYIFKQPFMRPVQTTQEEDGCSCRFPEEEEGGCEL
UniProt P20334, residues 24-256: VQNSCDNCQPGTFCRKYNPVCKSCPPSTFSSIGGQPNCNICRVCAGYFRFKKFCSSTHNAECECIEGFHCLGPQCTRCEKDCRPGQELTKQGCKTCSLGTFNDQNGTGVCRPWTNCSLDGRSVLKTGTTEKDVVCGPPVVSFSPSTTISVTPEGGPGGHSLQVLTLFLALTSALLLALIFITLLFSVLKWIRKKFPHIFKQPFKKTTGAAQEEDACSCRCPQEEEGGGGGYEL

Measured: binding

B1: 2.19.8-u1-3-hIgG1L (antibody, V domains shown)
VH: QVQLVESGGGLVKPGGSLRLSCAASGFTFSDYFMSWIRQAPGKGLEWVSYISNAGSSKYYADSVKGRFTISRDNAKNSLYLQMNSLRAEDTAVYYCVRDPYSGSYSGWFDPWGQGTLVTVSS
VL: SYDLTQPPSVSVSPGQTASITCSGDDLGDKYTSWYQQKPGQSPVLVVYQDHKRPSGIPERFSGSNSGNTATLTISGTQAMDEADYYCQAWDKGIVVFGGGTKLTVL
binds: all assays above

B2: 2.19.8-u1-3-hIgG4L (antibody, V domains shown)
VH: B1 VH
VL: B1 VL
binds: all assays above

Source: patent publication US20210230287A1
